The list does not hold the whole screen: it is rich in T/C values a quarter to a half above the control, in often repeated tests (any T/C) and in doses without a T/C. Further doses and runs are listed elsewhere. T/C gives the treated animals as a percentage of the vehicle group. Some entries give survivors of the animals treated and no T/C: the source holds a T/C of zero for them, seemingly a mark for toxic or unscored doses. Some survivor counts are full or nearly so, which does not show that the dose was tolerated: the source hardly ever lists a survival T/C far under the control, and the zero likely stands for such cases as well. Counts of survivors are from the toxicity check (mostly the fifth day) where no day follows; animals may have died later. Schedules are NCI's codes, taken here to give the interval after Q, in days (D) or hours (H), and the number of doses after X. Some doses were run more than once; the results are listed from low to high. For survival time, this PubChem deposit counts one and a half times the control or more as active, and values a quarter to a half above the control carry no call in these data; other NCI protocols may use other cut-offs. Some T/C values are followed by the survivors on the day toxicity was checked, most often the fifth; without a count, all were alive then.
Test system: BDF1 mice, M5076 sarcoma ip, median survival T/C
Experiment: NCI In Vivo Anticancer Drug Screen. Data for tumor model Sarcoma M5076 (intraperitoneal) in B6D2F1 (BDF1) mice
Conditions: T/C endpoint: median survival time, higher T/C = longer survival
Method: The antitumor activity of compounds was measured in mice bearing transplantable tumors. Survival or tumor size were measured and the results are expressed as the measurement made in the treated group (T) divided by the measurement made in the vehicle treated control group (C). The tumor model used in this assay is Sarcoma M5076 (intraperitoneal) in B6D2F1 (BDF1) mice

[1] = dose: 2.5 mg/kg/injection, schedule: Q04DX005 (ip), vehicle: sodium bicarbonate
[2] = dose: 40.0 mg/kg/injection, schedule: Q04DX004 (ip), vehicle: sodium bicarbonate
[3] = dose: 40.0 mg/kg/injection, schedule: Q04DX005 (ip), vehicle: sodium bicarbonate
[4] = dose: 200.0 mg/kg/injection, schedule: Q04DX004 (ip), vehicle: saline
[5] = dose: 25.0 mg/kg/injection, schedule: Q04DX004 (ip), vehicle: saline
[6] = dose: 100.0 mg/kg/injection, schedule: Q04DX005 (ip), vehicle: saline
[7] = dose: 400.0 mg/kg/injection, schedule: Q04DX004 (ip), vehicle: saline
[8] = dose: 800.0 mg/kg/injection, schedule: Q04DX005 (ip), vehicle: saline

CN(Cc1cnc2nc(N)nc(N)c2n1)c1ccc(C(=O)N[C@@H](CCC(=O)O)C(=O)O)cc1
T/C (dose: 1.1 mg/kg/injection, schedule: Q01DX009 (ip), vehicle: sodium bicarbonate): 139 % of control | T/C (dose: 2.5 mg/kg/injection, schedule: Q04DX004 (ip), vehicle: sodium bicarbonate): 94, 100, 105, 106 % of control | T/C [1]: 93 and 99 % of control | survivor count [1]: 10 of 10 on day 9 | T/C (dose: 5.0 mg/kg/injection, schedule: Q04DX004 (ip), vehicle: sodium bicarbonate): 91, 93, 93 [9 of 10 alive on day 9], 99 % of control | T/C (dose: 5.0 mg/kg/injection, schedule: Q04DX005 (ip), vehicle: sodium bicarbonate, evaluated on day 75): 97, 98, 103, 110 % of control | T/C (dose: 5.0 mg/kg/injection, schedule: Q04DX005 (ip), vehicle: sodium bicarbonate, evaluated on day 90): 95 % of control | T/C (dose: 10.0 mg/kg/injection, schedule: Q04DX004 (ip), vehicle: sodium bicarbonate): 90, 101, 105, 111 % of control | T/C (dose: 10.0 mg/kg/injection, schedule: Q04DX005 (ip), vehicle: sodium bicarbonate, evaluated on day 75): 90, 91, 103, 114 % of control | T/C (dose: 10.0 mg/kg/injection, schedule: Q04DX005 (ip), vehicle: sodium bicarbonate, evaluated on day 90): 106 % of control | survivor count (dose: 16.0 mg/kg/injection, schedule: Q04DX005 (ip), vehicle: sodium bicarbonate): 6 of 8 on day 17 | T/C (dose: 20.0 mg/kg/injection, schedule: Q04DX004 (ip), vehicle: sodium bicarbonate): 87, 103, 107, 115 % of control [9 of 10 alive on day 9] | T/C (dose: 20.0 mg/kg/injection, schedule: Q04DX005 (ip), vehicle: sodium bicarbonate, evaluated on day 75): 89, 90 [8 of 10 alive on day 9], 94, 100 % of control | T/C (dose: 20.0 mg/kg/injection, schedule: Q04DX005 (ip), vehicle: sodium bicarbonate, evaluated on day 90): 99 % of control | survivor count (dose: 32.0 mg/kg/injection, schedule: Q04DX005 (ip), vehicle: sodium bicarbonate): 0 of 8 on day 17 | T/C [2]: 92, 106, 123 % of control | survivor count [2]: 8 of 10 on day 9 | T/C [3]: 89, 97, 111 % of control | survivor count [3]: 1 of 10 on day 9 and 10 of 10

COC1CC(C)C(OC)C2=CC(=O)C=C(NC(=O)/C(C)=C/C=C\C(C)C(OC(N)=O)/C(C)=C\C(C)C1OC)C2=O (stereo not given)
survivor count (dose: 25.0 mg/kg/injection, schedule: Q04DX004 (ip), vehicle: saline + Tween-80 + alcohol): 3 of 10 on day 14 | survivor count (dose: 50.0 mg/kg/injection, schedule: Q04DX004 (ip), vehicle: saline + Tween-80 + alcohol): 0 of 10 on day 14 | survivor count (dose: 100.0 mg/kg/injection, schedule: Q04DX004 (ip), vehicle: saline + Tween-80 + alcohol): 0 of 10 on day 14

CC(=O)/C(=C\c1ccc(Cl)c(Cl)c1)C(=O)CCN(C)C
survivor count [4]: 0 of 10 on day 14

CC[C@](O)(C(=O)O)c1cc2n(c(=O)c1CO)Cc1cc3ccccc3nc1-2
T/C [5]: 128 % of control | T/C (dose: 50.0 mg/kg/injection, schedule: Q04DX004 (ip), vehicle: saline): 140 % of control [9 of 10 alive on day 14] | survivor count (dose: 100.0 mg/kg/injection, schedule: Q04DX004 (ip), vehicle: saline): 2 of 10 on day 14 | survivor count [4]: 0 of 9 on day 14

COc1cccc2c1C(=O)c1c(O)c3c(c(O)c1C2=O)C[C@@](O)(C(=O)CO)C[C@@H]3OC1CC(N)C(O)C(C)O1 (stereo not given in full)
T/C (dose: 1.0 mg/kg/injection, schedule: Q04DX004 (ip), vehicle: saline): 134 % of control | survivor count (dose: 8.0 mg/kg/injection, schedule: Q04DX005 (ip), vehicle: saline): 2 of 8 on day 17 | survivor count (dose: 16.0 mg/kg/injection, schedule: Q04DX004 (ip), vehicle: saline): 0 of 10 on day 14

O=c1n(CC2CO2)c(=O)n(CC2CO2)c(=O)n1CC1CO1 (stereo not given)
survivor count [6]: 0 of 10 on day 17

O=C1c2ccccc2C(Cl)(c2ccc(Cl)cc2)c2ccc(Cl)cc21 (stereo not given)
survivor count (dose: 800.0 mg/kg/injection, schedule: Q04DX004 (ip), vehicle: saline with Tween-80): 2 of 10 on day 14

Oc1cc(O)c(-c2c(O)cc(O)cc2O)c(O)c1 (tested in a mixture with another compound)
T/C (dose: 7.5 mg/kg/injection, schedule: Q01DX009 (ip), vehicle: saline): 127 % of control | T/C (dose: 25.0 mg/kg/injection, schedule: Q01DX009 (ip), vehicle: saline): 127 % of control [9 of 10 alive on day 9] | survivor count (dose: 30.0 mg/kg/injection, schedule: Q01DX009 (ip), vehicle: saline): 5 of 10 on day 9 | survivor count (dose: 60.0 mg/kg/injection, schedule: Q01DX009 (ip), vehicle: saline): 0 of 10 on day 9

CC[C@]1(O)C[C@H]2CN(CCc3c([nH]c4ccccc34)[C@@](C(=O)OC)(c3cc4c(cc3OC)N(C=O)[C@H]3[C@@](O)(C(=O)OC)[C@H](OC(C)=O)[C@]5(CC)C=CCN6CC[C@]43[C@@H]65)C2)C1
T/C (dose: 0.13 mg/kg/injection, schedule: Q04DX005 (ip), vehicle: saline): 128 % of control | T/C (dose: 0.5 mg/kg/injection, schedule: Q04DX005 (ip), vehicle: saline): 130 % of control | survivor count (dose: 2.0 mg/kg/injection, schedule: Q04DX005 (ip), vehicle: saline): 1 of 8 on day 17 and 10 of 10

CC(=O)C[n+]1ccc(C)cc1Sc1ccccc1C
survivor count (dose: 200.0 mg/kg/injection, schedule: Q04DX004 (ip), vehicle: saline with Tween-80): 4 of 10 on day 14

CNc1nc(N(C)C)nc(N(C)C)n1
T/C [5]: 135 % of control | survivor count [7]: 0 of 10 on day 14

COC1N(C2CC(O)C(CO)O2)C(=O)NC(=O)C1(F)Br (stereo not given)
T/C [4]: 126 % of control

COC1=C(C)C(=O)C2=C(C1=O)C(CO)N1C(C#N)C3CC4C(C1C2N1CCOC41)N3C (stereo not given)
survivor count (dose: 1000.0 micrograms/kg/injection, schedule: Q01DX009 (ip), vehicle: acid diluted with saline): 5 of 10 on day 9

Nc1nncs1
T/C [6]: 126 and 136 % of control | T/C [4]: 127 % of control | T/C (dose: 200.0 mg/kg/injection, schedule: Q04DX005 (ip), vehicle: saline): 134 % of control | T/C [7]: 137 and 137 % of control [9 of 10 alive on day 9] | T/C (dose: 400.0 mg/kg/injection, schedule: Q04DX005 (ip), vehicle: saline with Tween-80): 127 % of control | T/C (dose: 400.0 mg/kg/injection, schedule: Q04DX005 (ip), vehicle: saline): 139 and 143 % of control | T/C (dose: 800.0 mg/kg/injection, schedule: Q04DX004 (ip), vehicle: saline): 139 and 147 % of control | T/C (dose: 800.0 mg/kg/injection, schedule: Q04DX005 (ip), vehicle: saline with Tween-80): 139 % of control | T/C [8]: 133 % of control | survivor count [8]: 9 of 10 on day 9

C=C1C(=O)O[C@H]2C1[C@H](OC(=O)/C(C)=C\C)CC(=C)[C@@H]1C(=O)[C@H]3O[C@@]3(C)[C@@]12O (stereo not given in full)
T/C (dose: 4.0 mg/kg/injection, schedule: Q01DX009 (ip), vehicle: saline + alcohol): 125 % of control | T/C (dose: 8.0 mg/kg/injection, schedule: Q01DX009 (ip), vehicle: saline + alcohol): 132 % of control [9 of 10 alive] | survivor count (dose: 10.0 mg/kg/injection, schedule: Q01DX009 (ip), vehicle: saline + alcohol): 2 of 10 on day 9 | survivor count (dose: 20.0 mg/kg/injection, schedule: Q01DX009 (ip), vehicle: saline + alcohol): 0 of 10 on day 9 | survivor count (dose: 40.0 mg/kg/injection, schedule: Q01DX009 (ip), vehicle: saline + alcohol): 0 of 10 on day 9 | survivor count (dose: 80.0 mg/kg/injection, schedule: Q01DX009 (ip), vehicle: saline + alcohol): 0 of 10 on day 9
